This test addresses Flag-tagged SARS-CoV-2 envelope protein E (SARS-CoV-2) (UniProt P0DTC4). Kind of test: co-IP.

The source of these data is paper PMC13221179.

These are yes or no findings as the source states them, for the method shown. In cells and extracts the contact can be indirect. Some entries that bind do so weakly or less than the wild type.

As to “ubiquitinated s-tag-fused SARS-CoV-2 membrane protein M (from UniProt P0DTC5 1-222)”, the binding result was “binds”.
